# Source: paper doi:10.1101/2025.09.15.676257
# Amino acid sequences for entries named in this document (tags omitted).
# UniProt O15054: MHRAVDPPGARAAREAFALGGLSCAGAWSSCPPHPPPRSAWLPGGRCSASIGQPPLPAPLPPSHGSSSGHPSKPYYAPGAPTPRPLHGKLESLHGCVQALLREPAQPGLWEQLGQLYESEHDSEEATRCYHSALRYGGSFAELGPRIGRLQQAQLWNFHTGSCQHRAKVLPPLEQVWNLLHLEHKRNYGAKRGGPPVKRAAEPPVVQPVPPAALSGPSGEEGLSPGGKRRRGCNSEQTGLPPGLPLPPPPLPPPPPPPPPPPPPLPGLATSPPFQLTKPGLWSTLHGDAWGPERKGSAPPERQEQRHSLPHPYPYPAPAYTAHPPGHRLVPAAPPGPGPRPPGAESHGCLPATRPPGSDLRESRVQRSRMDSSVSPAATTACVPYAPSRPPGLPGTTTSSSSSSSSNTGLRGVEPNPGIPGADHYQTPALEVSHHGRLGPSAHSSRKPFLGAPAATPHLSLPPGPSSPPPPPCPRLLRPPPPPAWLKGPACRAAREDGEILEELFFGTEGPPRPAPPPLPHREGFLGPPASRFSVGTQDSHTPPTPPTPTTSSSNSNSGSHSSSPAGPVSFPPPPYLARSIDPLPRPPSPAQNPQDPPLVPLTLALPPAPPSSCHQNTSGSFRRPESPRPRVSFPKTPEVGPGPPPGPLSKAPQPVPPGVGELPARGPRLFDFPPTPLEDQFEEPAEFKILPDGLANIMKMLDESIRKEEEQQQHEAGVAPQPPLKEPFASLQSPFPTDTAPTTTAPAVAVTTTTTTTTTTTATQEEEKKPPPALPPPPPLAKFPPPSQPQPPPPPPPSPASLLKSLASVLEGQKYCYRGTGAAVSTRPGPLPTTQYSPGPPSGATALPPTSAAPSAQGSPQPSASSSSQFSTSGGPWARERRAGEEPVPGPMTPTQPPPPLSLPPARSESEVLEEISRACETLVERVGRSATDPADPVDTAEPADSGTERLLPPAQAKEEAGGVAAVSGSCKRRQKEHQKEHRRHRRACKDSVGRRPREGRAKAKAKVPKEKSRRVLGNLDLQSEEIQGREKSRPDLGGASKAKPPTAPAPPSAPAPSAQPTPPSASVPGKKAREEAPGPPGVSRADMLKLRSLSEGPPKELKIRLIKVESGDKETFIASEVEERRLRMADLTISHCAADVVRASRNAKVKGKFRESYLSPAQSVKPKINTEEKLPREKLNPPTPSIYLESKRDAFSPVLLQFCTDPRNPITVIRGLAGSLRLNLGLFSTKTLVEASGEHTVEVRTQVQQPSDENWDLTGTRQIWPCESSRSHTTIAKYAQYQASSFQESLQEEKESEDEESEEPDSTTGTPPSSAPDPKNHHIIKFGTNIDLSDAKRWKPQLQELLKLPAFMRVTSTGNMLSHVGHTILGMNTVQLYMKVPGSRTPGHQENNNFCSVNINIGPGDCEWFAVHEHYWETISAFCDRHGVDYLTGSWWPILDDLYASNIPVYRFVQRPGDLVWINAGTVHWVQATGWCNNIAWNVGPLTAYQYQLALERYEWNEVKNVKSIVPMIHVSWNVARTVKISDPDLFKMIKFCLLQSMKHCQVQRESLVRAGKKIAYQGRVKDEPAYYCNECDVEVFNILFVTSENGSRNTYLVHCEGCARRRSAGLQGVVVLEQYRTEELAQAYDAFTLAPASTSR
# No constants are given. Whether binding was seen depends on the method and setting. In cells and extracts the contact can be indirect. Some binding calls cover weakened binding; strength is not graded here.
# B1: AKNA (protein, UniProt Q7Z591 1-1439)
# chain: MASSETEIRWAEPGLGKGPQRRRWAWAEDKRDVDRSSSQSWEEERLFPNATSPELLEDFRLAQQHLPPLEWDPHPQPDGHQDSESGETSGEEAEAEDVDSPASSHEPLAWLPQQGRQLDMTEEEPDGTLGSLEVEEAGESSSRLGYEAGLSLEGHGNTSPMALGHGQARGWVASGEQASGDKLSEHSEVNPSVELSPARSWSSGTVSLDHPSDSLDSTWEGETDGPQPTALAETLPEGPSHHLLSPDGRTGGSVARATPMEFQDSSAPPAQSPQHATDRWRRETTRFFCPQPKEHIWKQTKTSPKPLPSRFIGSISPLNPQPRPTRQGRPLPRQGATLAGRSSSNAPKYGRGQLNYPLPDFSKVGPRVRFPKDESYRPPKSRSHNRKPQAPARPLIFKSPAEIVQEVLLSSGEAALAKDTPPAHPITRVPQEFQTPEQATELVHQLQEDYHRLLTKYAEAENTIDQLRLGAKVNLFSDPPQPNHSIHTGMVPQGTKVLSFTIPQPRSAEWWPGPAEDPQASAASGWPSARGDLSPSSLTSMPTLGWLPENRDISEDQSSAEQTQALASQASQFLAKVESFERLIQAGRLMPQDQVKGFQRLKAAHAALEEEYLKACREQHPAQPLAGSKGTPGRFDPRRELEAEIYRLGSCLEELKEHIDQTQQEPEPPGSDSALDSTPALPCLHQPTHLPAPSGQAPMPAIKTSCPEPATTTAAASTGPCPLHVNVEVSSGNSEVEDRPQDPLARLRHKELQMEQVYHGLMERYLSVKSLPEAMRMEEEEEGEEEEEEEGGGDSLEVDGVAATPGKAEATRVLPRQCPVQAEKSHGAPLEEATEKMVSMKPPGFQASLARDGHMSGLGKAEAAPPGPGVPPHPPGTKSAASHQSSMTSLEGSGISERLPQKPLHRGGGPHLEETWMASPETDSGFVGSETSRVSPLTQTPEHRLSHISTAGTLAQPFAASVPRDGASYPKARGSLIPRRATEPSTPRSQAQRYLSSPSGPLRQRAPNFSLERTLAAEMAVPGSEFEGHKRISEQPLPNKTISPPPAPAPAAAPLPCGPTETIPSFLLTRAGRDQAICELQEEVSRLRLRLEDSLHQPLQGSPTRPASAFDRPARTRGRPADSPATWGSHYGSKSTERLPGEPRGEEQIVPPGRQRARSSSVPREVLRLSLSSESELPSLPLFSEKSKTTKDSPQAARDGKRGVGSAGWPDRVTFRGQYTGHEYHVLSPKAVPKGNGTVSCPHCRPIRTQDAGGAVTGDPLGPPPADTLQCPLCGQVGSPPEADGPGSATSGAEKATTRRKASSTPSPKQRSKQAGSSPRPPPGLWYLATAPPAPAPPAFAYISSVPIMPYPPAAVYYAPAGPTSAQPAAKWPPTASPPPARRHRHSIQLDLGDLEELNKALSRAVQAAESVRSTTRQMRSSLSADLRQAHSLRGSCLF
# Target: KDM6B (human (endogenous in IMR32)) (UniProt O15054)
# Assay: co-IP
binder,measurement,value
B1,binding,binds
